The list shows a part of the results.
What follows are sequences tested against T1, OsSMF1 (Oryza sativa, UniProt Q6ZLB0 1-436) (assay: protein-binding microarray (RPBM); PBS, 2% BSA, 51.3 ng/ul salmon testes DNA, 50 uM zinc acetate, 200 nM TF, 25 C, 1 h; high values mean tight binding). Settings: protein: recombinant; tags: N-terminal polyhistidine and DsRed monomer fusion (pET32a); chain copies: 2; label: CyDye5-dUTP incorporated in the synthesized complementary strand; 3' TTTTT single-stranded linker to array surface; dsDNA, one strand shown.
T1 sequence: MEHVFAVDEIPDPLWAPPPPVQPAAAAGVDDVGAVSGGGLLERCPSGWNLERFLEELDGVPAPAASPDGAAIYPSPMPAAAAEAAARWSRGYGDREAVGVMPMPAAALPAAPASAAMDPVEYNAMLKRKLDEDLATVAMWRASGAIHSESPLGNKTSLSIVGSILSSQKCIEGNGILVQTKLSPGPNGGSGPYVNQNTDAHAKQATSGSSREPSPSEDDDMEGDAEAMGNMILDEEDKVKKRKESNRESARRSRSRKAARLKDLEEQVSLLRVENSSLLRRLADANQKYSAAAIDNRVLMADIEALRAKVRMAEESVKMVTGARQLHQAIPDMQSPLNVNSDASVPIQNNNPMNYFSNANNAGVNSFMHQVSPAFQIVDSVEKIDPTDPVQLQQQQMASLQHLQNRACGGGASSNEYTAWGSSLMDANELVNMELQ
How it was run: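 The binding signal for each feature is its fluorescence intensity in arbitrary units. An Axon 4000B scanner was used to read a custom Agilent array that had been made double-stranded with Cy5-dUTP primer extension, blocked with 2% BSA, incubated at 25 °C for 1 h with 200 nM protein in PBS, 2% BSA, salmon testes DNA and 50 µM zinc acetate, and washed. The protein was an N-terminal polyhistidine–DsRed transcription factor fusion from E. coli BL21-CodonPlus, purified on Ni–NTA.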

Point of comparison: “GATAATCATGTAAGAATGATGTTGCTGGATTTATTATTAACGGAGTCACCTAGTGCAG”, binding signal 3280 fluorescence intensity (a.u.). Against it:
- TTCCTGACTTCCTCCTCCCTTTCTTCTCTCGCCGCCGAGACGGAGTCACCTAGTGCAG — higher, 41400 fluorescence intensity (a.u.)
- TTGCCTACTCATGCACCACAAAGCTTGGTGACCGAACTAGCGGAGTCACCTAGTGCAG — lower, 3210 fluorescence intensity (a.u.)
- TCACACAACGCCACGTCACCATATGTTACGGGCAGCCATGCGGAGTCACCTAGTGCAG — higher, 17500 fluorescence intensity (a.u.)
- CACCTTGATCCACCTCGATCCGCTGGACGTGTGCTCGGGACGGAGTCACCTAGTGCAG — higher, 4950 fluorescence intensity (a.u.)
- ATCATATTAATTATTTCAAATTTACCATTTTATCATGTATCGGAGTCACCTAGTGCAG — higher, 4720 fluorescence intensity (a.u.)
- CTAACCACTTGCTCTGACATACCGTGTGTGTACCACACCACGGAGTCACCTAGTGCAG — higher, 4060 fluorescence intensity (a.u.)
- ACAGCCTAGCTTCTCTAGCACAGCAGCATGTTCACTTCTTCGGAGTCACCTAGTGCAG — higher, 3490 fluorescence intensity (a.u.)
- AGATGTTTTAACGTTGGTCAAAGTCAAACTGCTTCAAGTTCGGAGTCACCTAGTGCAG — higher, 3560 fluorescence intensity (a.u.)
- CTCGGTGCAGCGTCTCCCGTGTTGTCTTGTTGCTCTTGTGCGGAGTCACCTAGTGCAG — higher, 3370 fluorescence intensity (a.u.)
- TAAATTAATAAATATACATGAATCAGCTAGCTAGCGGTAACGGAGTCACCTAGTGCAG — higher, 3430 fluorescence intensity (a.u.)
- TATTGATTGATTGGTTAGTACTACAGTACTGTAGGAGTGGCGGAGTCACCTAGTGCAG — higher, 29800 fluorescence intensity (a.u.)
- GATGGGCTTGTGCTGACATCATCTATACGTGCTTTGCTCCCGGAGTCACCTAGTGCAG — higher, 14500 fluorescence intensity (a.u.)
- ATTCCAAGCAGGTGGACCCGCGTGTCATCCCCACTCTACACGGAGTCACCTAGTGCAG — higher, 5490 fluorescence intensity (a.u.)
- TGTCGTTGGCCTCCCTCGTCGCCATCCGTGCCGTCATGTGCGGAGTCACCTAGTGCAG — higher, 3640 fluorescence intensity (a.u.)
- ACCCGCCCACCGGCCTGGCCACACACCGCCGCCACGCTGGCGGAGTCACCTAGTGCAG — higher, 4800 fluorescence intensity (a.u.)
- TCTGCATGTTGGAGTAAGGCGTGAGTCAAGGCCAAATTAGCGGAGTCACCTAGTGCAG — higher, 3890 fluorescence intensity (a.u.)
- CCCCGGAAGGGGCGGGGAGGGGAGGGCGGCAGCGGCGCCGCGGAGTCACCTAGTGCAG — higher, 6060 fluorescence intensity (a.u.)
- TGATTGGTTGGCTGGTTGGTTAGTTGGCGCTTTTATCGTGCGGAGTCACCTAGTGCAG — higher, 4160 fluorescence intensity (a.u.)
- GGGTATCCTAACACTACCCATACCCCTTCTCCCTCACTCACGGAGTCACCTAGTGCAG — higher, 3410 fluorescence intensity (a.u.)
- TAAATGGAGTGCTTTGCCTTTGCTTGCGCGTGAGCATCCACGGAGTCACCTAGTGCAG — lower, 3220 fluorescence intensity (a.u.)
- CCGCACCCGCATCCCTTTCCCGCAAGGCCGCAACACCGTCCGGAGTCACCTAGTGCAG — higher, 12600 fluorescence intensity (a.u.)
- TGTTTATTTTAATTAGATGAATCATCAAATGTTTATCAAACGGAGTCACCTAGTGCAG — higher, 3690 fluorescence intensity (a.u.)
- GCCTGACCACCGTTCAACTGCGTCTGCAGTTTTATTCCTTCGGAGTCACCTAGTGCAG — higher, 4050 fluorescence intensity (a.u.)
- CAATGTGGTTTCATTAAAGTTGTAATCAGCTCTAGATTTTCGGAGTCACCTAGTGCAG — higher, 15700 fluorescence intensity (a.u.)
- CATTTCATTGCTATGAAGGGGCCGGGTATTTGGCATGCTACGGAGTCACCTAGTGCAG — higher, 21400 fluorescence intensity (a.u.)
- TTTACATCTTCTCCATCTCCACGTATTGTGTGCAACAAAACGGAGTCACCTAGTGCAG — higher, 4290 fluorescence intensity (a.u.)
- GCCGCCGTCATCTCCAGCTTCTGCGGGAGCAACACCGCCACGGAGTCACCTAGTGCAG — higher, 3470 fluorescence intensity (a.u.)
- CTCCTGCCTGTCTCACACACACCTGACGCGTGTGCGTGGGCGGAGTCACCTAGTGCAG — higher, 5120 fluorescence intensity (a.u.)
- CCTCCACAATACAATTCAATTCCCTCCTAGGTTTGTTATGCGGAGTCACCTAGTGCAG — higher, 3440 fluorescence intensity (a.u.)
- ACGTTCATATCAACGACCGTCATCAATTGATGATCTGACTCGGAGTCACCTAGTGCAG — higher, 7580 fluorescence intensity (a.u.)
- GAGGAAACTGGGCAACCAACCAGGCATCGGGACGTGTCAACGGAGTCACCTAGTGCAG — higher, 6480 fluorescence intensity (a.u.)
- ATATAGTAACGATAACCAGTGGCTCCACGTCAGCATGTTTCGGAGTCACCTAGTGCAG — higher, 35000 fluorescence intensity (a.u.)
- CTAACTTTTCCTTGTTTTCCACGTCTTTGGGAAGGGAGATCGGAGTCACCTAGTGCAG — higher, 4590 fluorescence intensity (a.u.)
- AACACAGCCATAATAATGGAGACGTTTAAATTACGTCAGGCGGAGTCACCTAGTGCAG — higher, 4170 fluorescence intensity (a.u.)
- TTTCAGACTGTCAACGTCTCACCGATAATTCGCGTGTCTGCGGAGTCACCTAGTGCAG — lower, 3210 fluorescence intensity (a.u.)
- ATTCTCGTACACGAAAAGTCTTTTCAGCTGTCGCTTCATACGGAGTCACCTAGTGCAG — lower, 3140 fluorescence intensity (a.u.)
- AGTCAGTTTTGCATTTCGGCACGTGCGTGTCAGGGGCAGACGGAGTCACCTAGTGCAG — higher, 5840 fluorescence intensity (a.u.)
- CGCTCATGCTCGCCGCCACGTCGTCACTTCCGCCCCTTCCCGGAGTCACCTAGTGCAG — higher, 18600 fluorescence intensity (a.u.)
- ATCTTCCCAAGTGGCCACCAGATAAGCCTCTCCACGTATTCGGAGTCACCTAGTGCAG — higher, 4930 fluorescence intensity (a.u.)
- CTAGACTGTGCCCTCTATTTCCACTCCGGCTGACGGCATTCGGAGTCACCTAGTGCAG — higher, 3550 fluorescence intensity (a.u.)
- ATCCGCCGCTGACGCCGACGGTGGAGGTCGGATCCGCCGCCGGAGTCACCTAGTGCAG — higher, 3500 fluorescence intensity (a.u.)
